Data: patent US9457101B2, “Hydrogels for delivery of therapeutic polypeptides” (priority 2012, dated 2016)
Where two headings read alike, the source gives them in different places.

Conditions: for protein elution from the microspheres: 10 mM GSH
Method: Protein Release. GSH mediated release studies were carried out over 6 days. Protein release was measured from 10,000 to 20,000 microspheres into 500 μL PBS in the presence and absence of glutathione. Release was measured with three independent replicates per experimental group. […] Therefore, at each 24-hour time point, glutathione containing buffers were completely replaced. The buffer that was removed was frozen for later analysis. At the completion of the experiment, all frozen samples were thawed and 50 μL of each samples were diluted in PBS and read on a Quantech fluorometer.

Q: Which “protein elution from the microspheres” value (48 hours) does the source give for GST-GFP here?
A: The value was 50%.

Q: And the “protein elution from the microspheres” value (6 days)?
A: Its value is “complete elution”.

Q: What about the GST-GFP elution (10 mM and 1 mM GSH, within 48 hours) of the same substance?
A: Its GST-GFP elution is “significantly eluted”.
